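Methionyl-tRNA synthetase (putative), Leishmania donovani (UniProt E9BF75). Primary screen of methionyl-tRNA synthetase; the read-out is not stated. The test concentration is not given. The values are filed as inhibition. Size under these conditions: about 68,000 compounds, about 24 of them at 50% or above in at least one test.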

Protein sequences, listed by entry. Tags and fused reporters are not part of them.
UniProt E9BF75, entry or part of it: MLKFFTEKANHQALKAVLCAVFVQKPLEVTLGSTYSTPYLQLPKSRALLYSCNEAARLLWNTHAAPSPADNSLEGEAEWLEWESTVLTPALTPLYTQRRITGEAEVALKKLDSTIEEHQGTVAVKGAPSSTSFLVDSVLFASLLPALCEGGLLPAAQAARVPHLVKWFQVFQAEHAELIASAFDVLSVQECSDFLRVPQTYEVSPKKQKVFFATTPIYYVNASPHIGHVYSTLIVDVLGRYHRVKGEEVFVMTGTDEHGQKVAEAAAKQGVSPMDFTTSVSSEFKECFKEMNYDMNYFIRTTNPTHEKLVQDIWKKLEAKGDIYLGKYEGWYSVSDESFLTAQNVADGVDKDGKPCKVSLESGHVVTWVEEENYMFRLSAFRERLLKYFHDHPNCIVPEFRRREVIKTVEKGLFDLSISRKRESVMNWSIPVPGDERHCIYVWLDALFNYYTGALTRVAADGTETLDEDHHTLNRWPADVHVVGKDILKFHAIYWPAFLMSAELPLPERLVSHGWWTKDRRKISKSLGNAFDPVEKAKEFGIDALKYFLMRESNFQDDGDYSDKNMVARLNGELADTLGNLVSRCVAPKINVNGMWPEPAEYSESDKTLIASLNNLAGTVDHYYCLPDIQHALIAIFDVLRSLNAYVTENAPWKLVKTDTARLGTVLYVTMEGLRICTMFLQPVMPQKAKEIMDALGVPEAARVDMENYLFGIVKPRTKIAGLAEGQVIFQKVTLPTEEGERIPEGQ

Results are percentages, as filed. How 0% and 100% were set is not recorded. Most values in the screen are low, and negative values occur. This is an unselected part of the compounds tested.

Compound | inhibition
CS(=O)(=O)NCC1CCCN(C(=O)Nc2ccccc2N2CCCC2)C1 (configuration not stated) | 15.34%
Cc1nnc(NC(=O)N2CCCN(C3CCCC3)CC2)s1 | 14.09%
Cc1nc(CC(=O)N2CCCC2Cn2cccn2)cs1 (configuration not stated) | 16.47%
O=C1NC2(CCN(Cc3cccs3)CC2)CC1c1ccncc1 (configuration not stated) | -1.307%
CN1C(=O)C2(CCN(CCO)C2)c2ccccc21 (configuration not stated) | 15.82%
O=C1CC(N2CCN(c3ccc(O)cc3)CC2)C(=O)N1Cc1cccs1 (configuration not stated) | 16.84%
CC(=O)N1CCC(c2ncc3c(n2)CCN(C(=O)c2ccccc2)C3)C1 (configuration not stated) | 21.22%
CCNC(=O)C(C)NC(=O)Nc1ccccc1SCC (configuration not stated) | 16.77%
Clc1ccccc1C1(c2ccnc(CC3CC3)n2)CCNCC1 | 6.299%
CC(C)N1CCCC(C(=O)NC(C)(C)c2nnc(N)s2)C1 (configuration not stated) | 23.64%
Cc1ncc(C(=O)N2CC[C@@]3(O)CCN(C4CCCCC4)C[C@H]3C2)cn1 | 7.216%
OCC1(O)CCN(c2ncccc2C(F)(F)F)CC1 | 15.32%
Cc1cc2n(n1)[C@@H](C(F)(F)F)C[C@@H](C1CCN(C(=O)C(C)C)CC1)N2 | 19.29%
c1ncn(CC2CCCN(Cc3nnc(C4CC4)o3)C2)n1 (configuration not stated) | 6.733%
Cc1nccc(-c2ccccc2)c1C(=O)N1CCC2(CN(C)C(=O)O2)C1 (configuration not stated) | 14.25%
c1ccc(-c2nc(CCNCc3cccnc3)co2)cc1 | 22.64%
COc1cccc2c1OCC(C(=O)N1Cc3ccccc3C1)C2 (configuration not stated) | 6.02%
Cc1nc2c(c(NCC(c3ccccc3C)N(C)C)n1)CCNC2 (configuration not stated) | 18.62%
O=C(CN1CCCC1c1noc(C2CC2)n1)N1CCc2ccccc21 (configuration not stated) | 16.76%
CN1CCO[C@@H]2CN(C(=O)c3ccc4ncccc4c3)CC[C@@H]2C1 | 12.89%
O=C(CCCc1ccccc1)Nc1cnc(N2CCOCC2)nc1 | 12.42%
CN1CCCN(C(=O)c2cnc(Cc3c(Cl)cccc3Cl)nc2O)CC1 | 12.73%
Cc1cnn(C2CCCN(C(=O)COc3ccc(C(N)=O)cc3)C2)c1 (configuration not stated) | 11.34%
CN1CCOC(CNCc2ccc(OCc3ccccn3)cc2)C1 (configuration not stated) | 20.56%
CCn1c(CN(C)C)nnc1C1CCN(Cc2ccc(C)s2)CC1 | 10.7%
Cc1csc2c(N3CCNC(C(=O)NCc4cccnc4)C3)ncnc12 (configuration not stated) | 2.046%
COCCN1CCC(CNCc2c[nH]nc2C(C)(C)C)CC1 | 11.4%
O=C(Nc1cccc2ccccc12)N1CCC(N2CCSCC2)CC1 | 14.25%
CCN(Cc1cccc(C(=O)Nc2ncc(C)s2)c1)[C@H]1COC[C@@H]1O | 12.45%
CCO[C@H]1CC[C@H]2[C@H]1OCCN2CCOCc1ccccc1 | 5.602%
Fc1ccccc1C1(CNC2CCOC3(CCOCC3)C2)CCCC1 (configuration not stated) | 17.89%
COc1cccc(Nc2nc(C3CCCNC3)c3sc(C)c(C)n23)c1 (configuration not stated) | 11.84%
CC(C)NC(=O)c1sc2ccccc2c1[C@H]1CC[C@H](CN)CC1 | 2.625%
Cc1nc2ccccn2c1CN1C[C@@H](CN2CCOCC2)[C@@H](CO)C1 | 12.85%
Cc1nc(C)n(CCNC(=O)C(C)n2ccnc2C(C)C)n1 (configuration not stated) | 15.32%
Cc1cc(NCc2cc3n(n2)CCCN(C(=O)N(C)C)C3)ncn1 | 8.148%
CSc1ccccc1C(C(=O)O)N1CCN(Cc2ccccn2)CC1 (configuration not stated) | 2.222%
CN(CCCc1cc(-c2ccccc2)no1)S(C)(=O)=O | 2.222%
Cc1ccc(C2CN(C(=O)c3ccn(C)c(=O)c3)CCO2)nc1 (configuration not stated) | 12.22%
CN(CC1CC1)c1ccc2ccc(C(=O)NC3CCCCC3)cn12 | 9.295%
CN1CCCC(Cc2cc(N(C)C)ncn2)C1 (configuration not stated) | 15.56%
CCc1nc(C(=O)NCc2ccc(N3CCNC(=O)C3)c(F)c2)c[nH]1 | 3.261%
N#Cc1ccc(SCCC(=O)NC(N)=O)cc1 | 12.99%
COc1ccc(Oc2ccc(CNC(=O)C3CCS(=O)(=O)C3)cn2)cc1 (configuration not stated) | 11.71%
Cc1csc2c(N3CCC(NCCc4ccnn4C)CC3)ncnc12 | 12.04%
Cc1ncsc1CCC(=O)N(C)Cc1nc2ccccc2n1C | -63.56%
Cc1cccnc1NC(=O)C(C)Cn1nc(C(F)(F)F)cc1C (configuration not stated) | 12.03%
O=C(CCCNc1ncccn1)Nc1ccc(Cn2cncn2)cc1 | 16.71%
CN(C1CCCCC1)S(=O)(=O)N1CCN(Cc2ccco2)CC1 | 7.258%
COC(=O)[C@H]1CN(C(=O)NC(C)C)CCN1C(=O)c1cccs1 | 7.143%
CNC(=O)C1(C)CN(c2nnc(C)c3ccccc23)CCO1 (configuration not stated) | 17.46%

Some entries from above, unchanged:

* O=C1NC2(CCN(Cc3cccs3)CC2)CC1c1ccncc1 (configuration not stated) : -1.307%
* COc1cccc2c1OCC(C(=O)N1Cc3ccccc3C1)C2 (configuration not stated) : 6.02%
* CCc1nc(C(=O)NCc2ccc(N3CCNC(=O)C3)c(F)c2)c[nH]1 : 3.261%

Measurements from “University of Dundee, Small-Polar-MMV Screening Library” (2021), ChEMBL document CHEMBL3988442.